Test results reported in paper PMC12869228.
Results are given in words; binding and its absence hold for the method and conditions named. In cells and extracts the contact can be indirect. Some binding calls cover weakened binding; strength is not graded here.

Amino acid sequences for entries named in this document (tags omitted). A change or cut given only in a name is not applied to a line headed by its entry.
UniProt P10275: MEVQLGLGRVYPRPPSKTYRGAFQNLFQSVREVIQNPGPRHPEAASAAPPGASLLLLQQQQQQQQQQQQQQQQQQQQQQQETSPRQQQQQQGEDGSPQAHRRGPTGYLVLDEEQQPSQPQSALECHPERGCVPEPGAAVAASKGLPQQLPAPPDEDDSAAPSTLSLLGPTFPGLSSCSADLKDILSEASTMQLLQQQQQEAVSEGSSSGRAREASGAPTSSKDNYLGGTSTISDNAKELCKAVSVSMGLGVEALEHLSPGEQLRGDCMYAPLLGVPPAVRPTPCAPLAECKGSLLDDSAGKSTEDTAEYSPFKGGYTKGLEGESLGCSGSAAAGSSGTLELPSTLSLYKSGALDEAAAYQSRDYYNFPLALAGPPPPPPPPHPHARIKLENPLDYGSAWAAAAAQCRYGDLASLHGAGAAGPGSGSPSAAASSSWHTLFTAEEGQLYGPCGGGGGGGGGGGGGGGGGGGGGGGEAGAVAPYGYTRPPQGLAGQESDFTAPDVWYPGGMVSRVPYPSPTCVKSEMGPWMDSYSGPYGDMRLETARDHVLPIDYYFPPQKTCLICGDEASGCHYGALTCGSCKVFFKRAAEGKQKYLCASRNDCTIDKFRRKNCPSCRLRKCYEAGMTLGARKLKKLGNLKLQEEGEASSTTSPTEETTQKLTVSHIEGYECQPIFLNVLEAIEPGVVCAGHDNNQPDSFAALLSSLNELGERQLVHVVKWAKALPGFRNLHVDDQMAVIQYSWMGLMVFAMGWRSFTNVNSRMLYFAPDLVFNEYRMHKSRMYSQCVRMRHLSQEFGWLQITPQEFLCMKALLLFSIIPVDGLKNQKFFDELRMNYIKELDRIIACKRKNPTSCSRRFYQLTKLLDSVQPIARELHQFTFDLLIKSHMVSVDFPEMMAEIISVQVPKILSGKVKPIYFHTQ
UniProt Q08999: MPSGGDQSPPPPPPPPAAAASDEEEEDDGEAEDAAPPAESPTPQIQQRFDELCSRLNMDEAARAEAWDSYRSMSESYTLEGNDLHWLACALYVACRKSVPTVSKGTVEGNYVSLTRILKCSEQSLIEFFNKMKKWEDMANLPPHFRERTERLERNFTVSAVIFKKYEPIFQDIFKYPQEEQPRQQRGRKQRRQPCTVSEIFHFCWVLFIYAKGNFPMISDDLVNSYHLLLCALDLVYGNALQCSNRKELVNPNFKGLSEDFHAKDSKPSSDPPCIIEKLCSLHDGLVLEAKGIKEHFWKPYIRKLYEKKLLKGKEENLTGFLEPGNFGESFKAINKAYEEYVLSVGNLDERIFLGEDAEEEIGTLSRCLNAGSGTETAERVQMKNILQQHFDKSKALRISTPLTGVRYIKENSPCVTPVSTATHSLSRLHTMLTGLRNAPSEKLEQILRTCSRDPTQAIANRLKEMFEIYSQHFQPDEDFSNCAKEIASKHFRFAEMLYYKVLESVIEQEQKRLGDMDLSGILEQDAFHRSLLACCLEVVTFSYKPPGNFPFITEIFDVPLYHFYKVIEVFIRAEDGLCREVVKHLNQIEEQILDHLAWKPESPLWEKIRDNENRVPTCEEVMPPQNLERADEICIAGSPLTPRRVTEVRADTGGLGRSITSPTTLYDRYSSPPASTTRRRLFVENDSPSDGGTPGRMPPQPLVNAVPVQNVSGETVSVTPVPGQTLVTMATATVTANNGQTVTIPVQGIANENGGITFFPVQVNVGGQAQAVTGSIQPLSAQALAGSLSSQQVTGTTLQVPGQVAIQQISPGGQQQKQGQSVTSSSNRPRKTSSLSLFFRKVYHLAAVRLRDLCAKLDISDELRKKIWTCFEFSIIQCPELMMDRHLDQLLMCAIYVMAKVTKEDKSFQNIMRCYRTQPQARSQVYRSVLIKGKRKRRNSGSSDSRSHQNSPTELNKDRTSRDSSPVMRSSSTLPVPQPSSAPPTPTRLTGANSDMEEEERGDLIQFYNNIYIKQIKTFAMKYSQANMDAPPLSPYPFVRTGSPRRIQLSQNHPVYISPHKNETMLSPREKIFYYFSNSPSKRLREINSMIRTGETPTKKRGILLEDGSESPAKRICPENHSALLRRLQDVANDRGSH
UniProt P04792: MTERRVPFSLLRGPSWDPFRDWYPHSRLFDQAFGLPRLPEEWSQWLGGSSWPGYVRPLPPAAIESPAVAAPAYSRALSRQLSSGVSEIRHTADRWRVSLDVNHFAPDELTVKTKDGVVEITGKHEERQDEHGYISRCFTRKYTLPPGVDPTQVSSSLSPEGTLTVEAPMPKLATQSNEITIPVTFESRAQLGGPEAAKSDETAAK

Columns and labels:
[1] = target: androgen receptor (AR), T878A mutant endogenously expressed in C4-2 cells (human (endogenous in C4-2)) (UniProt P10275); assay: co-IP; anti-AR antibody or normal rabbit IgG on protein A magnetic beads; whole cell lysates of C4-2 cells treated with DMSO, C28 or SAL for 72 h; 4 °C, 2 h; washes with 1x PBS; Western blot for p130
[2] = target: androgen receptor (AR), T878A mutant endogenously expressed in C4-2 cells (human (endogenous in C4-2)) (UniProt P10275); assay: co-IP; anti-AR antibody on protein A magnetic beads; cytosolic and nuclear fractions of C4-2 cells treated with DMSO, C28 or SAL (1 nM R1881); 4 °C, 2 h; Western blot for HSP27

binding [1]	binding [2]	Substance
binds	–	p130 (from UniProt Q08999 1-1139)
–	binds	HSP27 (from UniProt P04792 1-205)
